Results taken from US9259392B2, “Cochleate compositions directed against expression of proteins” (Rutgers, The State University of New Jersey, priority 2003, dated 2016).
For at least one compound, name, drawing or mass did not settle the structure.

Tests used:
Aspergillus fumigatus = assay: Cell phenotype, morphology and killing of Aspergillus fumigatus; assay type: cell-based
Cryptococcus neoformans = conditions: cited from earlier work

O=c1c2ccccc2[se]n1-c1ccccc1 [ebselen]
MIC for cell killing, dependence on temperature (Aspergillus fumigatus): decreased with increasing temperature
fungicidal properties (Cryptococcus neoformans): fungicidal properties
